Publication PMC12040169 (PLOS Biology, 2025)
This is one part of the list.

system: T1, CTL2-GFP (C. trachomatis L2/434/Bu, GFP-expressing); design: species or system HeLa; Intracellular C. trachomatis growth in HeLa cells, bulk GFP fluorescence relative to DMSO; conditions: bulk GFP, single well; 28.5 h, 10 µM; inhibitor
T1 construct: L2/434/Bu, GFP-expressing

Row | Compound | % of control remaining
1 | CN1C(=O)COc2ccccc2CCCC[C@@H]2[C@H]1CCCN2C(=O)CCCn1cncn1 [CBK292182] | 118.668%
2 | CC(C)(C)OC(=O)N1CCC(Oc2ccccc2C#N)C1 (stereo not shown) [CBK003039] | 128.714%
3 | O=C(c1ccc2[nH]c(=O)[nH]c2c1)N1CCCC2(CCN(Cc3ccccc3)C2)C1 (stereo not shown) [CBK137149] | 97.5157%
4 | Cc1ccc(C(=O)NCCNS(=O)(=O)c2ccccc2)cc1 [CBK264145] | 100%
5 | Cc1cc(=O)[nH]c2c1c(=O)[nH]n2C1CCCCCC1 [CBK288381] | 182.85%
6 | COCCCN1C(=O)C(O)=C(C(=O)c2ccc(C)o2)C1c1ccc(OC)cc1 (stereo not shown) [CBK264863] | 130.59%
7 | O=C(Nc1ccc(N2CCNCC2)c2ccccc12)c1cccnc1 [CBK036336T] | 122.777%
8 | COc1ccc(N2C(=O)CC(N3CCN(C4CC(=O)N(c5ccc(OC)cc5)C4=O)CC3)C2=O)cc1 (stereo not shown) [CBK260907] | 106.946%
9 | O=C1N[C@@H]2CCN(C(=O)CCn3ccccc3=O)C[C@@H]2CCCCCOc2ccccc21 [CBK292039] | 126.166%
10 | COC(=O)[C@H]1CCc2ccccc2N1C(=O)C(C)C [CBK285474] | 111.463%
11 | C[C@@H]1C[C@H](C)CN(C(C(=O)O)c2c[nH]c3ccccc23)C1 (stereo partly shown) [CBK286868] | 114.355%
12 | CCN1CCC(CC(=O)NCCn2ccnc2C)CC1 [CBK281984] | 78.7435%
13 | Cc1nnc(Nc2ccc3c(c2)nc2n3CCN(C3CCCCC3)C2)c2ccccc12 [CBK268042] | 149.953%
14 | CC(C)c1ccc(/C=C/C(=O)NCCC(N)=O)cc1 [CBK149646] | 112.556%
15 | Cc1cc(COc2ncccc2C(F)(F)F)no1 [CBK115783] | 107.221%
16 | C=CCn1c2cc(C)sc2c2cnn(CC(=O)NC(C)C)c(=O)c21 [CBK284150] | 135.279%
17 | CC(=O)Nc1ccc(NCc2csc(C3CCCO3)n2)c(C(F)(F)F)c1 (stereo not shown) [CBK304161] | 82.142%
18 | COc1ccc(NC(=O)CSc2ncnc3c2oc2ccccc23)c(OC)c1 [CBK287395] | 147.057%
19 | CC1=NN(c2ccc(Cl)cc2)C(=O)/C1=C\Nc1nnn[nH]1 [CBK262407] | 100%
20 | C(#Cc1csc(COc2cncc(N3CCNCC3)n2)c1)c1ccccc1 [CBK200006G] | 125.381%
21 | CC(=O)Nc1cccc(-c2nccnc2N[C@H](CO)C(C)C)c1 [CBK036611] | 155.78%
22 | CCC1CCCCN1C(=O)c1nc2ccccc2s1 (stereo not shown) [CBK076645] | 116.386%
23 | COc1ccc(-c2cc(C(=O)Nc3ccc(F)c(Cl)c3)cnc2-c2cccc(C)c2)cc1 [CBK037488] | 123.434%
24 | CCN1C(=O)CC2(C1=O)C(=O)N(CCc1cccs1)c1ccc(Cl)cc12 (stereo not shown) [CBK075614] | 132.329%
25 | CCCCNc1cc(N2CCN(C(=O)COC)CC2)nc(N)n1 [CBK304078] | 113.66%
26 | Fc1ccccc1COc1cccc(CNCCN2CCOCC2)c1 [CBK278148C] | 108.466%
27 | CC1CC(C)CN(Cc2csc(NC(=O)Cc3ccc(Cl)cc3)n2)C1 (stereo not shown) [CBK306142] | 48.2859%

Row | Compound | % of control remaining
28 | CC(C)(CO)CCCn1cncc1-c1cnn(-c2ccccc2)c1 [CBK281922] | 101.357%
29 | Cc1nc2c([N+](=O)[O-])c3c(c([N+](=O)[O-])c2[nH]1)Nc1nonc1N3 [CBK261069] | 99.3213%
30 | COc1cc(F)cc(OC2CCNCC2)c1NC(=O)c1coc2c1C(=O)CCC2 [CBK050351T] | 133.647%
31 | COC(C)CN(C)Cc1c(C)[nH]c2ccc(F)cc12 (stereo not shown) [CBK282035] | 120.15%
32 | CC(C)Cc1ccc(S(=O)(=O)Nc2ccc3[nH]c(=O)[nH]c3c2)cc1 [CBK270131] | 117.465%
33 | CCOC(=O)C1CCCN(C(=O)Cn2cnc(-c3cccs3)cc2=O)C1 (stereo not shown) [CBK304210] | 148.203%
34 | COc1cc(Nc2cncc(-c3ccc(O)cc3)n2)c(Cl)cc1C(=O)NCC1CCCO1 (stereo not shown) [CBK126468] | 107.553%
35 | CN(C)c1cccc(Nc2ccc(/C=C/c3ccccc3)cn2)c1 [CBK036984] | 141.214%
36 | O=C(NC(=O)N1CCC2(C1)NCCc1c2[nH]c2ccccc12)c1ccccc1 (stereo not shown) [CBK046985] | 129.417%
37 | Cc1c(C(=O)NC(C)c2ccncc2)oc2c(F)cccc12 (stereo not shown) [CBK282105] | 132.116%
38 | c1ccc2sc(SCCN3CCCCC3)nc2c1 [CBK016366] | 117.055%
39 | CCOC(=O)c1sc2nc(C(C)N3CCOCC3)[nH]c(=O)c2c1C (stereo not shown) [CBK305862] | 140.506%
40 | COC(=O)CCCNS(=O)(=O)c1ccc([N+](=O)[O-])cc1 [CBK261172] | 91.5713%
41 | Cc1nn(C)c(C)c1CCC(=O)N1CCc2ncc(Cl)cc2C1 [CBK284851] | 77.2393%
42 | Cc1c(NC(=O)CSCc2ccc(Cl)cc2Cl)cccc1C(=O)O [CBK131704] | 104.199%
43 | O=S(=O)(NC(c1c[nH]c2ccccc12)C(Cl)(Cl)Cl)c1ccccc1 (stereo not shown) [CBK263279] | 84.0813%
44 | CC1(C)CC(=O)C2=C(C1)Nc1nn(-c3ccccc3)c(O)c1C2c1cccs1 (stereo not shown) [CBK266333] | 140.251%
45 | CC(CC(=O)NCC1(C)COC1)n1cnc2ccccc21 (stereo not shown) [CBK281755] | 139.154%
46 | O=C(Cc1ccc(Cl)c(Cl)c1)N1CCN(c2ncccn2)CC1 [CBK144497] | 104.455%
47 | Nc1ccccc1Sc1ncccc1C(F)(F)F [CBK093758] | 159.037%
48 | Oc1cccc(-c2cc(CC3(NCc4ccc(F)cc4)COC3)no2)c1 [CBK289646] | 152.393%
49 | O=C(c1ccco1)c1coc2ccc(O)cc12 [CBK115570] | 117.432%
50 | c1ccc(CCn2nnnc2CN2CCN(c3ccccc3)CC2)cc1 [CBK069271] | 102.746%
51 | Nc1nonc1-n1nnc(C(=O)N/N=C/c2ccc([N+](=O)[O-])cc2)c1-c1ccccc1 [CBK261992] | 102.128%
52 | c1c2c(cc3sc(N4CCCCC4)nc13)OCCO2 [CBK287497] | 156.757%
53 | CC(NC(=O)c1c(Cl)c(Cl)c(Cl)c(Cl)c1C(=O)O)c1cccs1 (stereo not shown) [CBK264722] | 122.183%
54 | CNc1snc(N2CCOCC2)c1C#N [CBK011453] | 116.947%

Row | Compound | % of control remaining
55 | CC(C)(CNC(=O)Cn1cc(C(=O)NC2CCCCC2)ccc1=O)c1ccccc1F [CBK286099] | 117.184%
56 | CC(C)c1csc(NC(=O)C2CN(S(=O)(=O)c3ccc(F)cc3)C2)n1 [CBK285944] | 91.0739%
57 | Cc1nn(Cc2cccc3ccccc23)c(C)c1NC(=O)c1ccccn1 [CBK269936] | 78.3243%
58 | CCN(CC)C(=O)CC1SC(NCC2CCCCC2)=NC1=O (stereo not shown) [CBK067923] | 129.188%
59 | COc1ccc(C(C)C)cc1-c1cnc2nc(NS(C)(=O)=O)ccc2c1 [CBK085672] | 102.736%
60 | CCCCc1c(O)[nH]c2nc3ccccc3n2c1=O [CBK287875] | 105.141%
61 | CCC1c2cccn2CCN1Cc1cncn1CC (stereo not shown) [CBK283012] | 128.181%
62 | O=C(Nc1ccccc1)O[C@@H]1CO[C@H]2[C@@H]1OC[C@@H]2Nc1nccc(-c2cccs2)n1 [CBK289513] | 88.6486%
63 | C/C=C/c1ccc(OCCCn2nnc3ccccc32)c(OC)c1 [CBK269271] | 145.902%
64 | CC[C@@H]1CCCCN1C(=O)c1ccc(Cl)c(C)c1 [CBK084565] | 131.154%
65 | COc1ccc([C@@H]2CN(C)C[C@H]2NC(=O)Nc2ccc(Cl)c(Cl)c2)cc1OC [CBK081111] | 12.3546%
66 | O=C(COc1ccccc1)N1CCC(c2cc3cnccc3[nH]2)CC1 [CBK283449] | 96.6483%
67 | COc1ccc(Cc2nnc(SCC(=O)Nc3ccc(Br)c(C)c3)n2C)cc1 [CBK265816] | 100%
68 | COc1ccc(S(=O)(=O)NCc2ccc3c(c2)OCO3)cc1C(=O)O [CBK264070] | 100%
69 | CC(C)C[C@@H]1N[C@H](C(=O)NC2CCC2)Cc2cn(Cc3nccn3C)c3cccc1c23 [CBK289422] | 111.931%
70 | Cc1noc(C)c1C(=O)N1CCC(c2ccncc2)CC1 [CBK282334] | 84.5311%
71 | CC1(C)Cc2nc(N3CCOCC3)ncc2C(NC(=O)NC(C)(C)C)C1 (stereo not shown) [CBK306978] | 116.582%
72 | O=C(Nc1cccc(OC(=O)c2cccc(S(=O)(=O)N3CCOCC3)c2)c1)c1ccccc1 [CBK261365] | 100%
73 | CC(C)CC(Nc1ncnc2c1oc1ccccc12)C(=O)O (stereo not shown) [CBK293974] | 141.541%
74 | COc1ccc(CCC(=O)N2CCCc3c(cnn3C)C2)cc1 [CBK285326] | 116.579%
75 | Fc1ccc(-c2nccnc2NCc2ccncc2)cc1 [CBK088964] | 185.265%
76 | COC(=O)c1c(NC(=O)COc2ccccc2Cl)sc2c1CCC(c1ccccc1)C2 (stereo not shown) [CBK265456] | 132.173%
77 | CN(C)CCN1CCN(c2ccc(-c3ccc(OC(F)(F)F)cc3)cn2)CC1 [CBK036796] | 134.337%
78 | COc1ccc(OC)c(C(O)CN2CCc3sccc3C2c2cccs2)c1 (stereo not shown) [CBK285532] | 75.1264%
79 | Nc1ccccc1Sc1cc(C(F)(F)F)ccn1 [CBK093761] | 109.558%

An excerpt from above in order of length of the SMILES, largest number first:
Row | Compound | % of control remaining
62 | O=C(Nc1ccccc1)O[C@@H]1CO[C@H]2[C@@H]1OC[C@@H]2Nc1nccc(-c2cccs2)n1 [CBK289513] | 88.6486%
59 | COc1ccc(C(C)C)cc1-c1cnc2nc(NS(C)(=O)=O)ccc2c1 [CBK085672] | 102.736%
79 | Nc1ccccc1Sc1cc(C(F)(F)F)ccn1 [CBK093761] | 109.558%

Molecules shown so far with two or more sulfur atoms:
Row | Compound | % of control remaining
38 | c1ccc2sc(SCCN3CCCCC3)nc2c1 [CBK016366] | 117.055%
56 | CC(C)c1csc(NC(=O)C2CN(S(=O)(=O)c3ccc(F)cc3)C2)n1 [CBK285944] | 91.0739%
78 | COc1ccc(OC)c(C(O)CN2CCc3sccc3C2c2cccs2)c1 (stereo not shown) [CBK285532] | 75.1264%
